Test results as given in paper PMC7778533.
No constants are given. Whether binding was seen depends on the method and setting. Binding seen in cells or lysates may run through a third protein. Some entries that bind do so weakly or less than the wild type.

T1: TGF-β type I receptor (human (endogenous in A549 and H1299)) (UniProt P36897)
T1 sequence: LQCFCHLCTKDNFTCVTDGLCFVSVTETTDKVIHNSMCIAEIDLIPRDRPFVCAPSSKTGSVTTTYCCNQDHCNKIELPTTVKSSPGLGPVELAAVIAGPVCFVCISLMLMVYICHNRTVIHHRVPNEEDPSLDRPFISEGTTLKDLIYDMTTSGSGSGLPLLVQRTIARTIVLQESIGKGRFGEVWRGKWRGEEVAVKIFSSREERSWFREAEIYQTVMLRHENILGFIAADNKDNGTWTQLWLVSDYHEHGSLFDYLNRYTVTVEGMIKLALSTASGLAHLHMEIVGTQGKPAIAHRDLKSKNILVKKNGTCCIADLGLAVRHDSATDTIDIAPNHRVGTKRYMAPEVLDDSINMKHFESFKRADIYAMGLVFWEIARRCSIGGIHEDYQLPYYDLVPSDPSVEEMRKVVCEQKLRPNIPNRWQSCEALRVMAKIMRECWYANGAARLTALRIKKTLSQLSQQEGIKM


Molecular target: T1, TGF-β type I receptor (human (endogenous in A549 and H1299))
Assay: co-IP; Pierce Co-IP Kit; 8 μg TβRI antibody coupled with the resin; 500 μg whole-cell lysate of A549 (pIRES-NC or pIRES-NgBR) or H1299 (shNC or shNgBR) cells, overnight at 4°C; eluate blotted for TβRI and NgBR

binding	Binder
binds	Nogo-B receptor (protein, UniProt Q96E22 1-293) MTGLYELVWRVLHALLCLHRTLTSWLRVRFGTWNWIWRRCCRAASAAVLAPLGFTLRKPPAVGRNRRHHRHPRGGSCLAAAHHRMRWRADGRSLEKLPVHMGLVITEVEQEPSFSDIASLVVWCMAVGISYISVYDHQGIFKRNNSRLMDEILKQQQELLGLDCSKYSPEFANSNDKDDQVLNCHLAVKVLSPEDGKADIVRAAQDFCQLVAQKQKRPTDLDVDTLASLLSSNGCPDPDLVLKFGPVDSTLGFLPWHIRLTEIVSLPSHLNISYEDFFSALRQYAACEQRLGK
binds	Nogo-B receptor overexpressed from the pIRES-NgBR plasmid (protein, UniProt Q96E22 1-293) MTGLYELVWRVLHALLCLHRTLTSWLRVRFGTWNWIWRRCCRAASAAVLAPLGFTLRKPPAVGRNRRHHRHPRGGSCLAAAHHRMRWRADGRSLEKLPVHMGLVITEVEQEPSFSDIASLVVWCMAVGISYISVYDHQGIFKRNNSRLMDEILKQQQELLGLDCSKYSPEFANSNDKDDQVLNCHLAVKVLSPEDGKADIVRAAQDFCQLVAQKQKRPTDLDVDTLASLLSSNGCPDPDLVLKFGPVDSTLGFLPWHIRLTEIVSLPSHLNISYEDFFSALRQYAACEQRLGK
